From PMC12670408 (Journal of Medicinal Chemistry, 2025)
Numbered stars: 1 amine (or outer) side, 2 acyl side, 3 side chain; on linkers, the order of the positions; unused ones are H or OH. Square brackets hold non-standard residues; d marks the D form. Ile(ψThz) = CC[C@H](C)[C@H](N[*:1])c1nc(C(=O)[*:2])cs1

Test: general procedure: Fmoc solid-phase peptide synthesis; chlorotrityl chloride resin; PyBOP/DIPEA; COMU for dipeptide fragments; PyBOP for solution cyclisation
Settings: whole synthesis

Row | Substance | isolated yield [%]
1 | cyclo(AFPIP[Ile(ψThz)]) (SMILES CC[C@H](C)[C@@H]1NC(=O)[C@@H]2CCCN2C(=O)[C@H](Cc2ccccc2)NC(=O)[C@H](C)NC(=O)c2csc(n2)[C@H]([C@@H](C)CC)NC(=O)[C@@H]2CCCN2C1=O) | 86
2 | cyclo(AFPIPIC) (SMILES CC[C@H](C)[C@@H]1NC(=O)[C@@H]2CCCN2C(=O)[C@H]([C@@H](C)CC)NC(=O)[C@@H]2CCCN2C(=O)[C@H](Cc2ccccc2)NC(=O)[C@H](C)NC(=O)[C@H](CS)NC1=O) | 42
